Experiment: In vivo SPECT study of cerebral blood flow in rabbits
Parameters: species or system rabbits (New Zealander)
Conditions: rabbit SPECT; HM-PAO 59 MBq, 8 minutes p.i.; cytectrene 14 MBq, 15 minutes p.i.
Experimental: In an in vivo study on rabbits (New Zealander, breeding by Schering AG Berlin, approximately 4 kg, male), the cerebral blood flow of commercially available HM-PAO was compared with the N-methyl-piperidin-4-ol-cytectrenecarboxylic acid ester (produced analogously to example 6).
The study was made with a SPECT camera of Apex 409 type.
After nembutal anesthesia, the animal was intravenously administered 1 ml of an isotonic, aqueous, sterile solution of ^99m Tc-HMPAO or said cytectrene derivative.
The recording technique and the results are described by the following table.

Compound	static: [(σ cts/pixel)(μcts/pixel)^-1 100] [%]
C/C(=N\O)C(C)NCC(C)(C)CNC(C)/C(C)=N/O (centres unmarked) [HM-PAO, hexamethyl-propylenamine oxime, reference compound]	2
cyclopentadienylcarboxylic acid-(N-methyl-piperidinol)-4-ester-^99m technetium-tricarbonyl complex	1.4

Reference: patent US5538712A, “Cyclopentadienylcarbonyl 99MTC complexes, process for their production as well as their use in diagnostics” (Institut Fur Diagnostikforschung GmbH/an der Freien …, priority 1990, dated 1996)
